Measured values from PubChem BioAssay AID652163 (Broad Institute, 2013).
Screen size: about 360,000 compounds; about 500 (0.14%) were called active. The shares of active, inactive and inconclusive entries below differ from those in the screen.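 Rule for the calls: active = mean inhibition of at least 70% across replicates, with every replicate also reaching that level; inconclusive = mean inhibition reaches 70% but some replicates fall short; inactive = mean inhibition below 70%.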

Chains of the proteins cited; added tags and fusions are not shown.
UniProt P26447, whole entry, looked up: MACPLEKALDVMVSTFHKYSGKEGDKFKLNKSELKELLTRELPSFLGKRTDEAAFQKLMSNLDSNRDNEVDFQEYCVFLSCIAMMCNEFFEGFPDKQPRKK

Target: Protein S100-A4 (Homo sapiens) (UniProt P26447)
Assay: inhibitors of S100A4-myosin IIA peptide binding, primary screen, biochemical, fluorescence polarization, TAMRA-MyoIIA peptide (AID 652163)
Conditions: at 10.7 µM, stronger effect = higher value
Summary of the method: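 Test system: S100A4 monomer protein; Medium: HEPES pH 7.2 with CaCl2, KCl, NaCl, DTT, Triton; Probe or stimulus: TAMRA-labelled myosin IIA heavy-chain peptide probe, 5 nM; Doses: one dose per compound; Times: polarization read 5 min after assay mix addition, stable 5–60 min; Benchmarks: neutral control DMSO, positive control TFP.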

Row | SMILES | inhibition
1 | CN(C)CC(=O)N1CC2(C1)[C@@H](c1ccccc1)[C@@H](CO)N2S(C)(=O)=O | active: 90.6%
2 | CC(C)NCC#CCOc1ccc(Cl)cc1 | inconclusive: 113%
3 | O=C(C[C@@H]1C=C[C@H](NS(=O)(=O)c2ccccc2F)[C@@H](CO)O1)NCCCN1CCOCC1 | inconclusive: 76.6%
4 | CCc1ccc(NC(=O)CCC(=O)N2CCSc3ccccc32)cc1 | inactive: 5.78%
5 | CCCCNC(=O)C1C(c2ccc(OC)cc2)=Nc2ccccc2N1C(=O)c1cccnc1 (stereo not drawn) | inconclusive: 117%
6 | O=C(N[C@@H]1C=C[C@@H](CC(=O)N2CCCCC2)O[C@H]1CO)c1cccc(F)c1 | inconclusive: 70.5%
7 | CCC(=O)NC(=S)Nc1ccc(N2CCOCC2)cc1 | inactive: -3.96%
8 | O=C(c1cccc(F)c1)N1CC[C@H]2[C@H](CO)Nc3ccc(-c4ccc(F)cc4)cc3[C@H]21 | active: 102%
9 | CC(C)CC#Cc1ccc2c(c1)O[C@@H](CN(C)C(=O)Nc1ccccc1)[C@@H](C)CN([C@H](C)CO)S2(=O)=O | active: 117%
10 | CO[C@H]1CN(C)C(=O)c2ccc(NS(C)(=O)=O)cc2OC[C@@H](C)N(C(=O)C2CCCC2)C[C@@H]1C | inconclusive: 76.2%
11 | Cc1ccccc1NC(=O)C1CCN(S(=O)(=O)c2ccc3c(c2)NC(=O)C(C)S3)CC1 (stereo not drawn) | active: 111%
12 | Cc1ccc2cccc(NS(=O)(=O)c3ccccc3)c2n1 | inconclusive: 88.5%
13 | CCCNC(=O)N[C@@H]1CC[C@@H](CCn2cc(-c3cccc(F)c3)nn2)O[C@@H]1CO | inactive: 16.2%
14 | COc1ccc(OC)c(C(=O)CN2C(=O)C(=O)N(C3CCCC3)C2=O)c1 | inconclusive: 128%
15 | O=C(c1cnccn1)N1CC(=O)N2[C@H](CO)[C@@H](c3ccc(C#CCc4ccccc4)cc3)[C@@H]2C1 | inconclusive: 88.1%
16 | Cc1ccc(S(=O)(=O)NCC[C@@H]2CC[C@H](NC(=O)Nc3cccc(F)c3)[C@@H](CO)O2)cc1 | active: 73.1%
17 | CN1[C@H](C(=O)NCc2ccccc2F)[C@@H](CO)[C@@H]2Cn3c(ccc(C4=CCCC4)c3=O)[C@@H]21 | inconclusive: 91.2%
18 | CN(C)c1ccc(C=c2c3cc(O)ccc3n3c2cc(-c2ccccc2)[n+]3C)cc1 | active: 78.9%
19 | COc1ccc(S(=O)(=O)N(C)C[C@@H]2OCCCC[C@H](C)Oc3ccc(NS(=O)(=O)c4cccs4)cc3C(=O)N([C@H](C)CO)C[C@H]2C)cc1 | inconclusive: 78.6%
20 | O=C(COn1nnc2ccc(Cl)cc21)NC1CCS(=O)(=O)C1 (stereo not drawn) | inconclusive: 124%
21 | CC(C)NC(=O)Nc1ccc2c(c1)C(=O)N([C@H](C)CO)C[C@@H](C)[C@H](CN(C)S(=O)(=O)c1ccccc1)OCCCC[C@@H](C)O2 | active: 121%
22 | C[C@H](CO)N1C[C@H](C)[C@H](CN(C)C(=O)Nc2ccc3c(c2)OCO3)Oc2ccc(NC(=O)Cc3ccccc3)cc2C1=O | inconclusive: 81.3%
23 | CCCC(=O)Nc1ccc2c(c1)OC[C@H](C)N(CCC(F)(F)F)C[C@H](C)[C@@H](OC)CN(C)C2=O | active: 131%

Row | SMILES | inhibition
24 | CN1C(=O)c2cc(NC(=O)Cc3cccs3)ccc2OC[C@H]2O[C@H](CC(=O)N[C@H]3CCN(Cc4ccccc4)C3)CC[C@@H]21 | active: 96%
25 | C[C@H](CO)N1C[C@H](C)[C@@H](CN(C)C(=O)NC2CCCCC2)Oc2c(NC(=O)C3CCOCC3)cccc2C1=O | inconclusive: 91.6%
26 | CCOC(=O)C1=C[C@@H](CC)N(S(=O)(=O)c2ccc(C)cc2)[C@H]1c1cccs1 | inconclusive: 96.2%
27 | C[C@@H]1CN([C@H](C)CO)S(=O)(=O)c2ccc(C3=CCCC3)cc2O[C@@H]1CN(C)C(=O)C1CCOCC1 | inactive: 10.3%
28 | COc1ccc2c3c(n(C)c2c1)[C@@H](CO)N(Cc1cc(F)ccc1F)CC31CN(C(=O)C2CC2)C1 | inconclusive: 75.5%
29 | CCC(C)c1ccccc1N1CC(C(=O)N2CCN(c3ccccc3)CC2)CC1=O (stereo not drawn) | inactive: -3.98%
30 | COC(=O)[C@@H]1[C@@H](CO)[C@@H]2Cn3c(ccc(-c4cccc(F)c4)c3=O)[C@@H]2N1CC1CCCC1 | inconclusive: 97%
31 | Cc1noc(C)c1NC(=O)Nc1cccc2c1O[C@@H](CN(C)S(=O)(=O)c1cccs1)[C@H](C)CN([C@@H](C)CO)C2=O | inconclusive: 79.3%
32 | O=S(=O)(N[C@@H]1CC[C@H](CCn2cc(-c3cccnc3)nn2)O[C@@H]1CO)c1ccc(Cl)cc1 | inactive: -4.22%
33 | O=C(Nc1cccc(Cl)c1)Nc1ccon1 | inconclusive: 110%
34 | C[C@@H]1CN([C@H](C)CO)C(=O)c2cc(NC(=O)Nc3ccccc3)ccc2O[C@@H](C)CCCCO[C@H]1CN(C)Cc1ccc(C(=O)O)cc1 | inconclusive: 101%
35 | C[C@@H]1CN([C@@H](C)CO)C(=O)c2cc(-c3ccncc3)cnc2O[C@H]1CN(C)C | inconclusive: 92.9%
36 | CCCNC(=O)C[C@H]1C[C@@H]2c3cc(NC(=O)C4CCOCC4)ccc3O[C@@H]2[C@H](CO)O1 | inconclusive: 70.9%
37 | Cc1ccc(N2CC(C(=O)Nc3ccc(S(=O)(=O)NCC4CCCO4)cc3)CC2=O)cc1 (stereo not drawn) | inconclusive: 86.8%
38 | COc1ccc(-c2ccc(C3[C@H]4CNC[C@@H]3N4S(=O)(=O)c3ccc(OC)cc3)cc2)cc1 (stereo partly drawn) | inconclusive: 74.8%
39 | O=C(Nc1cccc(F)c1)N1C[C@@H]2[C@H](c3ccccc31)[C@H](CO)N2C(=O)c1ccccn1 | inconclusive: 80%
40 | NC(=S)N/N=C\c1ccccc1OCc1ccccc1 | inactive: -1.51%
41 | O=C(CCS(=O)(=O)c1ccc(Cl)cc1)Nc1nccs1 | inconclusive: 86%
42 | O=C(O)[C@@H]1[C@@H](CO)[C@@H]2Cn3c(ccc(/C=C/c4ccccc4)c3=O)[C@@H]2N1C(=O)C1CCCC1 | active: 110%
43 | O=C(C[C@H]1C[C@H]2c3cc(NC(=O)C4CCOCC4)ccc3O[C@H]2[C@@H](CO)O1)NCc1ccc(Oc2ccccc2)cc1 | inactive: 10.1%
44 | O=C(NC1CCCCC1)[C@H]1[C@H](CO)[C@H]2Cn3c(cccc3=O)[C@H]2N1C(=O)CC1CC1 | active: 102%
45 | Cc1cnn(Cc2cccnc2)c1N | inconclusive: 160%
46 | O=C(O)c1cc(Cl)c(Cl)cc1C(=O)N1CCCC1 | inconclusive: 77.9%

2 of the compounds above, as a markdown table.

| Row | SMILES | inhibition |
| --- | --- | --- |
| 25 | C[C@H](CO)N1C[C@H](C)[C@@H](CN(C)C(=O)NC2CCCCC2)Oc2c(NC(=O)C3CCOCC3)cccc2C1=O | inconclusive: 91.6% |
| 26 | CCOC(=O)C1=C[C@@H](CC)N(S(=O)(=O)c2ccc(C)cc2)[C@H]1c1cccs1 | inconclusive: 96.2% |

Quoted from the listing.
`O=C(NC1CCCCC1)[C@H]1[C@H](CO)[C@H]2Cn3c(cccc3=O)[C@H]2N1C(=O)CC1CC1` | inhibition: active: 102%
`CCCNC(=O)C[C@H]1C[C@@H]2c3cc(NC(=O)C4CCOCC4)ccc3O[C@@H]2[C@H](CO)O1` | inhibition: inconclusive: 70.9%

(cont.)

Row | SMILES | inhibition
47 | COc1cccc(-c2ccc([C@H]3[C@H](CO)N4CCCCN(CC5CC5)C[C@@H]34)cc2)c1 | active: 127%
48 | C[C@@H]1CN([C@H](C)CO)C(=O)c2cccc(NS(C)(=O)=O)c2O[C@@H]1CN(C)CC1CC1 | active: 126%
49 | CCC(Sc1nc2ccncc2[nH]1)C(=O)Nc1ccc(C)c(Cl)c1 (stereo not drawn) | active: 78.6%
50 | O=C(c1ccccc1)N1CC(=O)N2[C@@H](CO)[C@H](c3ccc(-c4ccccc4)cc3)[C@@H]2C1 | inconclusive: 71.8%
51 | COc1ccc(NC(=O)Nc2ccc3c(c2)C(=O)N([C@H](C)CO)C[C@H](C)[C@H](CN(C)Cc2ccc(C(F)(F)F)cc2)OCCCC[C@H](C)O3)cc1 | active: 157%
52 | O=C(c1ccc2c(c1)OCO2)N1CC[C@H]2[C@H](CO)Nc3ccc(-c4ccc(F)cc4)cc3[C@H]21 | inconclusive: 109%
53 | CN1[C@@H]2c3ccc(-c4ccc(F)cc4)c(=O)n3C[C@H]1[C@H](CO)[C@H]2C(=O)N1CCCCC1 | inconclusive: 195%
54 | CC(C)NC(=O)N(C)C[C@H]1Oc2ccc(NC(=O)Nc3ccc(F)cc3)cc2C(=O)N([C@H](C)CO)C[C@H]1C | inconclusive: 130%
55 | C[C@H]1CN([C@@H](C)CO)C(=O)c2cc(NC(=O)Cn3cnnn3)ccc2O[C@@H]1CN(C)Cc1ccc(Oc2ccccc2)cc1 | inactive: -11.2%
56 | COCC#Cc1cnc2c(c1)C(=O)N([C@H](C)CO)C[C@@H](C)[C@H](CN(C)C(=O)C1CCCCC1)O2 | inactive: -3.84%
57 | CN1CCN(C(=O)C[C@H]2CC[C@H]3[C@@H](COC[C@H](O)CN3CC3CCCC3)O2)CC1 | inconclusive: 73.2%
58 | Cc1ccc(S(=O)(=O)N(C)C[C@@H]2Oc3cc(C4=CCCC4)ccc3S(=O)(=O)N([C@@H](C)CO)C[C@H]2C)cc1 | inconclusive: 78%
59 | CNC[C@@H]1Oc2c(NS(=O)(=O)c3ccc(F)cc3)cccc2C(=O)N([C@H](C)CO)C[C@H]1C | inconclusive: 75.6%
60 | CC(=O)Oc1ccccc1C(=O)Nc1ccccc1C(=O)N1CCCCC1 | inconclusive: 86.3%
61 | CCCC(NC(=O)C(C)Sc1nnnn1C1CC1)c1ccccc1 (stereo not drawn) | inconclusive: 84.8%
62 | O=C(COC(=O)c1cncc(Br)c1)NC12CC3CC(CC(C3)C1)C2 | inconclusive: 120%
63 | Cc1ccc(S(=O)(=O)N2C[C@@H]3N[C@H](C2)C3c2ccc(/C=C/c3ccccc3)cc2)cc1 (stereo partly drawn) | inconclusive: 87.3%
64 | CCCNC(=O)C[C@H]1CC[C@@H]2[C@H](COC[C@H](O)CN2C(=O)Nc2ccccc2OC)O1 | inconclusive: 97.9%
65 | COc1ccc2c3c([nH]c2c1)[C@H](CO)N(Cc1cc(F)ccc1F)CC31CN(C(=O)CN(C)C)C1 | inconclusive: 73.4%
66 | C[C@H](CO)N1C[C@H](C)[C@@H](CN(C)C(=O)Cc2ccccc2)Oc2cc(C#CC3(O)CCCC3)ccc2S1(=O)=O | inconclusive: 88.3%
67 | Cc1ccc(S(=O)(=O)Nc2ccc3c(c2)C(=O)N([C@H](C)CO)C[C@H](C)[C@@H](CN(C)Cc2ccc(Cl)c(Cl)c2)OCCCC[C@H](C)O3)cc1 | inconclusive: 93.2%
68 | C[C@H](NC(=O)C[C@@H]1CC[C@H](NC(=O)C2CC2)[C@@H](CO)O1)c1ccccc1 | inconclusive: 101%
